# Assay results taken from the supplement of paper PMC8728848.
# This is one part of the list.
# B1: DC-Sign-R (Homo sapiens), Q9H2X3 (protein)
# chain: MSDSKEPRVQQLGLLEEDPTTSGIRLFPRDFQFQQIHGHKSSTGCLGHGALVLQLLSFMLLAGVLVAILVQVSKVPSSLSQEQSEQDAIYQNLTQLKAAVGELSEKSKLQEIYQELTQLKAAVGELPEKSKLQEIYQELTRLKAAVGELPEKSKLQEIYQELTRLKAAVGELPEKSKLQEIYQELTRLKAAVGELPEKSKLQEIYQELTELKAAVGELPEKSKLQEIYQELTQLKAAVGELPDQSKQQQIYQELTDLKTAFERLCRHCPKDWTFFQGNCYFMSNSQRNWHDSVTACQEVRAQLVVIKTAEEQNFLQLQTSRSNRFSWMGLSDLNQEGTWQWVDGSPLSPSFQRYWNSGEPNNSGNEDCAEFSGSGWNDNRCDVDNYWICKKPAACFRDE
# Legend:
# Test in all cases: glycan array binding signal (z-score within array); higher = stronger binding
# Settings in all cases: glycan notation: IUPAC condensed, linker removed
# [1] = target: GlcNAc(b1-3)Gal(b1-3)GalNAc
# Method in brief: (§1)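 The Consortium for Functional Glycomics database supplied 3228 glycan arrays, of which those lacking an available protein sequence were dropped. The binding signal, a within-array Z-score, was averaged across arrays of the same protein sequence and across linkers. Negative scores can be read as non-binding.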
# GlcNAc(b1-3)Gal(b1-4)Glc = target: GlcNAc(b1-3)Gal(b1-4)Glc
# Method in brief: as §1
# [2] = target: GlcNAc(b1-3)Gal(b1-4)GlcNAc
# Method in brief: as §1
# [3] = target: GlcNAc(b1-3)Gal(b1-4)GlcNAc(b1-2)Man(a1-3)[GlcNAc(b1-3)Gal(b1-4)GlcNAc(b1-2)Man(a1-6)]Man(b1-4)GlcNAc(b1-4)GlcNAc
# Method in brief: as §1
# [4] = target: GlcNAc(b1-3)Gal(b1-4)GlcNAc(b1-2)Man(a1-3)[GlcNAc(b1-3)Gal(b1-4)GlcNAc(b1-2)Man(a1-6)]Man(b1-4)GlcNAc(b1-4)[Fuc(a1-6)]GlcNAc
# Method in brief: as §1
# [5] = target: GlcNAc(b1-3)Gal(b1-4)GlcNAc(b1-2)[GlcNAc(b1-3)Gal(b1-4)GlcNAc(b1-6)]Man(a1-6)[GlcNAc(b1-3)Gal(b1-4)GlcNAc(b1-2)Man(a1-3)]Man(b1-4)GlcNAc(b1-4)GlcNAc
# Method in brief: as §1
# [6] = target: GlcNAc(b1-3)Gal(b1-4)GlcNAc(b1-3)Gal(b1-4)GlcNAc
# Method in brief: as §1
# [7] = target: GlcNAc(b1-3)Gal(b1-4)GlcNAc(b1-3)Gal(b1-4)GlcNAc(b1-2)Man(a1-3)[GlcNAc(b1-3)Gal(b1-4)GlcNAc(b1-3)Gal(b1-4)GlcNAc(b1-2)Man(a1-6)]Man(b1-4)GlcNAc(b1-4)GlcNAc
# Method in brief: as §1
# [8] = target: GlcNAc(b1-3)Gal(b1-4)GlcNAc(b1-3)Gal(b1-4)GlcNAc(b1-2)Man(a1-3)[GlcNAc(b1-3)Gal(b1-4)GlcNAc(b1-3)Gal(b1-4)GlcNAc(b1-2)Man(a1-6)]Man(b1-4)GlcNAc(b1-4)[Fuc(a1-6)]GlcNAc
# Method in brief: as §1
# [9] = target: GlcNAc(b1-3)Gal(b1-4)GlcNAc(b1-3)Gal(b1-4)GlcNAc(b1-2)[GlcNAc(b1-3)Gal(b1-4)GlcNAc(b1-3)Gal(b1-4)GlcNAc(b1-6)]Man(a1-6)[GlcNAc(b1-3)Gal(b1-4)GlcNAc(b1-3)Gal(b1-4)GlcNAc(b1-2)Man(a1-3)]Man(b1-4)GlcNAc(b1-4)[Fuc(a1-6)]GlcNAc
# Method in brief: as §1
# [10] = target: GlcNAc(b1-3)Gal(b1-4)GlcNAc(b1-3)Gal(b1-4)GlcNAc(b1-3)Gal(b1-4)GlcNAc(b1-2)Man(a1-3)[GlcNAc(b1-3)Gal(b1-4)GlcNAc(b1-3)Gal(b1-4)GlcNAc(b1-3)Gal(b1-4)GlcNAc(b1-2)Man(a1-6)]Man(b1-4)GlcNAc(b1-4)GlcNAc
# Method in brief: as §1
# [11] = target: GlcNAc(b1-3)Gal(b1-4)GlcNAc(b1-3)Gal(b1-4)GlcNAc(b1-3)Gal(b1-4)GlcNAc(b1-2)Man(a1-3)[GlcNAc(b1-3)Gal(b1-4)GlcNAc(b1-3)Gal(b1-4)GlcNAc(b1-3)Gal(b1-4)GlcNAc(b1-2)Man(a1-6)]Man(b1-4)GlcNAc(b1-4)[Fuc(a1-6)]GlcNAc
# Method in brief: as §1
# [12] = target: GlcNAc(b1-3)Gal(b1-4)GlcNAc(b1-3)Gal(b1-4)GlcNAc(b1-3)Gal(b1-4)GlcNAc(b1-2)[GlcNAc(b1-3)Gal(b1-4)GlcNAc(b1-3)Gal(b1-4)GlcNAc(b1-3)Gal(b1-4)GlcNAc(b1-6)]Man(a1-6)[GlcNAc(b1-3)Gal(b1-4)GlcNAc(b1-3)Gal(b1-4)GlcNAc(b1-3)Gal(b1-4)GlcNAc(b1-2)Man(a1-3)]Man(b1-4)GlcNAc(b1-4)[Fuc(a1-6)]GlcNAc
# Method in brief: as §1
# [13] = target: GlcNAc(b1-3)Gal(b1-4)GlcNAc(b1-3)Gal(b1-4)GlcNAc(b1-3)Gal(b1-4)GlcNAc(b1-3)Gal(b1-4)GlcNAc(b1-2)Man(a1-3)[GlcNAc(b1-3)Gal(b1-4)GlcNAc(b1-3)Gal(b1-4)GlcNAc(b1-3)Gal(b1-4)GlcNAc(b1-3)Gal(b1-4)GlcNAc(b1-2)Man(a1-6)]Man(b1-4)GlcNAc(b1-4)GlcNAc
# Method in brief: as §1
# [14] = target: GlcNAc(b1-3)Gal(b1-4)GlcNAc(b1-3)Gal(b1-4)GlcNAc(b1-3)Gal(b1-4)GlcNAc(b1-3)Gal(b1-4)GlcNAc(b1-2)Man(a1-3)[GlcNAc(b1-3)Gal(b1-4)GlcNAc(b1-3)Gal(b1-4)GlcNAc(b1-3)Gal(b1-4)GlcNAc(b1-3)Gal(b1-4)GlcNAc(b1-2)Man(a1-6)]Man(b1-4)GlcNAc(b1-4)[Fuc(a1-6)]GlcNAc
# Method in brief: as §1
# [15] = target: GlcNAc(b1-3)Gal(b1-4)GlcNAc(b1-3)Gal(b1-4)GlcNAc(b1-3)Gal(b1-4)GlcNAc(b1-3)Gal(b1-4)GlcNAc(b1-2)[GlcNAc(b1-3)Gal(b1-4)GlcNAc(b1-3)Gal(b1-4)GlcNAc(b1-3)Gal(b1-4)GlcNAc(b1-3)Gal(b1-4)GlcNAc(b1-6)]Man(a1-6)[GlcNAc(b1-3)Gal(b1-4)GlcNAc(b1-3)Gal(b1-4)GlcNAc(b1-3)Gal(b1-4)GlcNAc(b1-3)Gal(b1-4)GlcNAc(b1-2)Man(a1-3)]Man(b1-4)GlcNAc(b1-4)[Fuc(a1-6)]GlcNAc
# Method in brief: as §1
# [16] = target: GlcNAc(b1-3)Gal(b1-4)GlcNAc(b1-3)Gal(b1-4)GlcNAc(b1-3)GalNAc
# Method in brief: as §1
# [17] = target: GlcNAc(b1-3)Gal(b1-4)GlcNAc(b1-3)GalNAc
# Method in brief: as §1
binder,measurement,setting,value
B1,glycan array binding signal (z-score),[1],0.907
same,glycan array binding signal (z-score),GlcNAc(b1-3)Gal(b1-4)Glc,-0.451
same,glycan array binding signal (z-score),[2],0.161
same,glycan array binding signal (z-score),[3],-0.072
same,glycan array binding signal (z-score),[4],0.094
same,glycan array binding signal (z-score),[5],2.48
same,glycan array binding signal (z-score),[6],0.703
same,glycan array binding signal (z-score),[7],0.429
same,glycan array binding signal (z-score),[8],-0.152
same,glycan array binding signal (z-score),[9],-0.433
same,glycan array binding signal (z-score),[10],-0.691
same,glycan array binding signal (z-score),[11],-0.393
same,glycan array binding signal (z-score),[12],-0.532
same,glycan array binding signal (z-score),[13],-0.559
same,glycan array binding signal (z-score),[14],-0.657
same,glycan array binding signal (z-score),[15],-0.686
same,glycan array binding signal (z-score),[16],-0.424
same,glycan array binding signal (z-score),[17],0.93

# Another view of part of the listing above.
binder | measurement | setting | value
B1 | glycan array binding signal (z-score) | [5] | 2.48
same | glycan array binding signal (z-score) | [6] | 0.703
